Measurements taken from PubChem BioAssay AID662 (National Center for Advancing Translational Sciences (NCATS), 2007).
Some of the results follow. These are further read-outs of the screen, such as a control signal, another cell line or another target. No call is given for them. Compounds called inactive in the main read-out are mostly missing here. The note in brackets gives the kind of curve behind each potency; many fits are weak.

Assay: Cell signaling CRE-BLA (Fsk stim)
Conditions: CHO CRE-bla reporter (cAMP response element driving beta-lactamase), forskolin EC10, beta-lactamase ratio; measured here: 460 nm blue channel
Outline: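 Modulation of forskolin-driven signalling is measured in CHO cells carrying a CRE-controlled beta-lactamase reporter. Cells are stimulated with EC10 NKH 477 in the presence of titrated compound for 3 h at 37 °C, then loaded with CCF4 for 2 h at room temperature.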

| Compound | AC50 |
| --- | --- |
| O=C(Cn1nnc(-c2ccc(Cl)cc2)n1)NCCC1=CCCCC1 | 5.01 µM [falling, partial curve] |
| CNc1nc(OC)nc(N2CCOCC2)n1 | 10 µM [rising, partial curve] |
| CC(C)N(Cc1nc(-c2ccccc2)no1)S(=O)(=O)c1ccccc1 | 12.6 µM [falling, single point] |
| O=c1c(-c2cccs2)nc2cnc(Oc3cccc(Cl)c3)nc2n1C1CC1 | 6.31 µM [rising, partial curve] |
| CCC(CC)C(=O)Nc1cccc(C(=O)N2CCOCC2)c1 | 10 µM [falling, partial curve] |
| N#CCCn1c(=O)c(CCc2ccccc2)nc2cnc(Nc3ccccc3)nc21 | 5.01 µM [rising, partial curve] |
| COC(=O)[C@H](CCSC)NC(=O)Nc1ccc(OC)cc1 | 3.16 µM [rising, single point] |
| COc1ccccc1NC(=O)Cn1c(=O)n2nc(C)nc2c2ccccc21 | 7.94 µM [rising, partial curve] |
| Cc1nc2cnc(N3CCN(C)CC3)nc2n(-c2ccccc2)c1=O | 12.6 µM [rising, partial curve] |
| COc1cccc(C(=O)CSc2nnc(COc3cccc4cccnc34)o2)c1 | 10 µM [rising, partial curve] |
| O=c1[nH]nc(Sc2ncnc3sccc23)n1CCc1ccccc1 | 2.51 µM [falling, full curve] |
| Cc1cccc(S(=O)(=O)c2c(N)n(/N=C/c3ccco3)c3nc4ccccc4nc23)c1 | 6.31 µM [rising, partial curve] |
| O=C1c2ccccc2NC(c2ccc(Cl)cc2Cl)N1O (stereo not given) | 12.6 µM [falling, partial curve] |
| COc1ccc(C(=O)N2CCC3(CCN(C(=O)Nc4cccc(C#N)c4)CC3)CC2)cc1 | 25.1 µM [rising, single point] |
| COc1cccc(C2=NOC(C(=O)Nc3cc(OC)c(OC)c(OC)c3)C2)c1 (stereo not given) | 7.94 µM [rising, partial curve] |
| COCCn1c(=O)c(-c2cc(F)cc(F)c2)nc2cnc(OCc3ccccc3)nc21 | 25.1 µM [rising, single point] |
| Nc1nc(SC/C=C\c2ccccc2)c2[nH]cnc2n1 | 1.58 µM [rising, partial curve] |
| COc1cc(C(=O)Nc2nncs2)cc(OC)c1OC | 12.6 µM [rising, single point] |
| COc1cc(-c2csc(N3CCOCC3)n2)cc(OC)c1OC | 12.6 µM [rising, partial curve] |
| COCCn1c(-c2ccc(-c3ccccc3Cl)o2)nc2c1c(=O)[nH]c(=O)n2CC(C)C | 7.94 µM [rising, partial curve] |

| Compound | AC50 |
| --- | --- |
| COc1ccc2cc(C(=O)N3CCCCCC3)sc(=O)c2c1OC | 12.6 µM [rising, single point] |
| COCCCN1C(=O)C(=O)/C(=C(/O)c2ccc(OC(C)C)cc2)C1c1ccc(O)c(OC)c1 (stereo not given) | 0.0794 µM [falling, single point] |
| CCOC(=O)n1c(SCC(=O)N(CC)CC)nc2ccccc21 | 12.6 µM [rising, partial curve] |
| Cc1nc2ncnn2c(N2CCN(C(c3ccccc3)c3ccccc3)CC2)c1C | 20 µM [falling, single point] |
| CC1CCCN(C(=O)c2cc3c(-c4ccc(Cl)cc4)nn(C)c3s2)C1 (stereo not given) | 2.51 µM [rising, full curve] |
| Cc1ccc(C(=O)Nc2nccs2)cc1S(=O)(=O)N1CCCCC1 | 20 µM [rising, single point] |
| Cn1nc(-c2ccc(Cl)cc2)c2cc(C(=O)N3CCN(c4ccccn4)CC3)sc21 | 3.98 µM [rising, partial curve] |
| CCOc1ccc(OCC)c(NC(=O)C2CCN(c3ncccn3)CC2)c1 | 12.6 µM [rising, partial curve] |
| COc1ccc(Cn2nnc3c(=O)[nH]c(C(=O)NCCc4ccc(F)cc4)nc32)cc1OC | 7.94 µM [rising, partial curve] |
| Cc1ccc2c(c1)CCCN2C(=O)c1c(C)noc1C | 3.16 µM [falling, full curve] |
| O=C(Nc1ccc2oc(-c3ccccc3)nc2c1)c1ccncc1 | 3.98 µM [rising, partial curve] |
| Cc1sc2nc(SCC(=O)N3CCOCC3)[nH]c(=O)c2c1C | 10 µM [rising, single point] |
| O=C(Nc1ccc2nn(-c3ccccc3)nc2c1)c1ccc2c(c1)OCCO2 | 10 µM [falling, partial curve] |
| Cc1cc(C)n2nc(SCN3C(=O)c4ccccc4C3=O)nc2n1 | 10 µM [rising, partial curve] |
| O=C(Cn1cnc2ccccc2c1=O)NCC(=O)N1CCN(c2ccccn2)CC1 | 0.0398 µM [falling, full curve] |
| CC(C)n1cc(/C=C(\C#N)S(=O)(=O)c2ccccc2)c2ccccc21 | 2 µM [rising, full curve, poor fit] |
| Cc1occc1-c1nnc(SCC(=O)NCc2cccs2)n1-c1ccc(F)cc1 | 20 µM [rising, single point] |
| C=CCn1cnc2c(c1=O)c1nc3ccccc3nc1n2/N=C/c1cccc(OC)c1 | 12.6 µM [rising, single point] |
| O=C(NC1CCCC1)C(c1cccs1)N(CC1CCCO1)C(=O)Cc1cccs1 (stereo not given) | 0.0251 µM [falling, full curve, poor fit] |
| COc1ccc(-c2noc(CCN3C(=O)c4ccccc4C3=O)n2)cc1OC | 6.31 µM [rising, partial curve] |

Rewritten as labelled records: two of the compounds above.
O=C(Nc1ccc2nn(-c3ccccc3)nc2c1)c1ccc2c(c1)OCCO2
  AC50: 10 µM [falling, partial curve]
Cc1cc(C)n2nc(SCN3C(=O)c4ccccc4C3=O)nc2n1
  AC50: 10 µM [rising, partial curve]
